Results published in article PMC2494995, “The central proline rich region of POB1/REPS2 plays a regulatory role in epidermal growth factor receptor endocytosis by binding to 14-3-3 and SH3 domain-containing proteins” (BMC Biochemistry, 2008).
Results are given in words; binding and its absence hold for the method and conditions named. For some assays here: Binding seen in cells or lysates may run through a third protein. Some binding calls cover weakened binding; strength is not graded here.

Protein sequences, listed by entry. Tags and fused reporters are not part of them.
UniProt P63104: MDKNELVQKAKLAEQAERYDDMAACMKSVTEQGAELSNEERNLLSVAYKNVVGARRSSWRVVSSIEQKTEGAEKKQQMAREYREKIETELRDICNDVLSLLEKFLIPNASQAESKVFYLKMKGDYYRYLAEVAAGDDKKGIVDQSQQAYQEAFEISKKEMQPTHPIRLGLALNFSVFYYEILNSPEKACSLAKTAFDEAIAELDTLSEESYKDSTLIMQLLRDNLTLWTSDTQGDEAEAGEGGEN
UniProt P62993: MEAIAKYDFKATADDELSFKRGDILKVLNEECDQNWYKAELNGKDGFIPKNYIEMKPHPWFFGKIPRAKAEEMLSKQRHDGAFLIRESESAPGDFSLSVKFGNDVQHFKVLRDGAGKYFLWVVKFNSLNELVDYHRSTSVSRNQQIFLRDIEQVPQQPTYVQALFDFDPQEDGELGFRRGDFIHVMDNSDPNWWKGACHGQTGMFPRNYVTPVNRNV

How the values were obtained:
[1] = molecular target: positive control phospho-peptide RRSRsFPVTF; assay: peptide or protein array; data not shown; comparable SPOT membranes probed with GST-14-3-3 isoform zeta; both purified
[2] = molecular target: positive control phospho-peptide RRFRsLPAAH; assay: as above
[3] = molecular target: positive control phospho-peptide RRHRsAPGVR; assay: as above
[4] = molecular target: T1, endogenous POB1 full length (HeLa) (human (endogenous in HeLa)) (UniProt Q8NFH8); assay: co-IP; endogenous proteins, HeLa cells starved 4 hours, with or without EGF 100 ng/ml; immunoprecipitated with anti-POB1; blots with anti-Grb2 or anti-14-3-3 zeta
T1 sequence: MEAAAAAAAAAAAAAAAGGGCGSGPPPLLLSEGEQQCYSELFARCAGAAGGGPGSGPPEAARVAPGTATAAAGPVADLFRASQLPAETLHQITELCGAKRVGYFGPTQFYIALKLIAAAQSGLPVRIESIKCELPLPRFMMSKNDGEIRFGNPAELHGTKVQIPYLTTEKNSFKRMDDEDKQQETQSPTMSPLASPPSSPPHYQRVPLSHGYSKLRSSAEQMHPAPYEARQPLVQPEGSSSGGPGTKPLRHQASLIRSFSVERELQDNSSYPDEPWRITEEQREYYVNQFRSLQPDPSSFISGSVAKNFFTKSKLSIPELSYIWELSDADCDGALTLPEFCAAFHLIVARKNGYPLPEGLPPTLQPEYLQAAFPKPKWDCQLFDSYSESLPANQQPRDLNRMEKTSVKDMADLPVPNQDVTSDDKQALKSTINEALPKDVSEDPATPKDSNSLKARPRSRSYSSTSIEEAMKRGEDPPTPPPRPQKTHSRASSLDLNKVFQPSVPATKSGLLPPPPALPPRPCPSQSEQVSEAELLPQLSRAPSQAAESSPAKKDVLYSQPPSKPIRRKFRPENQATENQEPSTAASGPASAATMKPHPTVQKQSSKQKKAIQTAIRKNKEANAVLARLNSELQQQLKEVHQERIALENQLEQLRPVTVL

Substance	binding [1]	binding [2]	binding [3]	binding [4]
GST-14-3-3 ζ (from UniProt P63104 1-245)	binds	binds	binds	
endogenous 14-3-3 zeta (HeLa) (from UniProt P63104 1-245)				binds
endogenous Grb2 (HeLa) (from UniProt P62993 1-217)				binds
